# These are yes or no findings as the source states them, for the method shown.
# B1: ParBF^1-42-mCherry (domain or fragment, F-plasmid (E. coli))
# chain: MKRAPVIPKHTLNTQPVEDTSLSTPAAPMVDSLIARVGVMAR
# notes: ParBF^1-42 fused to the N-terminus of mCherry through an SGGG linker; His6 at the C-terminus of the fusion; Monomer by gel filtration; also called monomeric ParBF^1-42-mCherry; source: E. coli BL21 DE3 AI, purified (HisTrap after lysis in 6 M guanidinium chloride, S200 size exclusion); not shown: mCherry, C-terminal, kept
# Molecular target: ParBF^1-42-mCherry (F-plasmid (E. coli))
# Assay: SEC; Superose 6 3.2/300 column with protein standards; both purified
binder,measurement,value
B1,binding,no binding
